The source of these data is patent US20180201654A1, “PEPTIDE INHIBITORS OF HAUSP DEUBIQUITINASE” (priority 2012, published 2018).

Amino acid sequences for entries named in this document (tags omitted). A change or cut given only in a name is not applied to a line headed by its entry. Residues count along the entry.
UniProt Q93009, residues 62-1102: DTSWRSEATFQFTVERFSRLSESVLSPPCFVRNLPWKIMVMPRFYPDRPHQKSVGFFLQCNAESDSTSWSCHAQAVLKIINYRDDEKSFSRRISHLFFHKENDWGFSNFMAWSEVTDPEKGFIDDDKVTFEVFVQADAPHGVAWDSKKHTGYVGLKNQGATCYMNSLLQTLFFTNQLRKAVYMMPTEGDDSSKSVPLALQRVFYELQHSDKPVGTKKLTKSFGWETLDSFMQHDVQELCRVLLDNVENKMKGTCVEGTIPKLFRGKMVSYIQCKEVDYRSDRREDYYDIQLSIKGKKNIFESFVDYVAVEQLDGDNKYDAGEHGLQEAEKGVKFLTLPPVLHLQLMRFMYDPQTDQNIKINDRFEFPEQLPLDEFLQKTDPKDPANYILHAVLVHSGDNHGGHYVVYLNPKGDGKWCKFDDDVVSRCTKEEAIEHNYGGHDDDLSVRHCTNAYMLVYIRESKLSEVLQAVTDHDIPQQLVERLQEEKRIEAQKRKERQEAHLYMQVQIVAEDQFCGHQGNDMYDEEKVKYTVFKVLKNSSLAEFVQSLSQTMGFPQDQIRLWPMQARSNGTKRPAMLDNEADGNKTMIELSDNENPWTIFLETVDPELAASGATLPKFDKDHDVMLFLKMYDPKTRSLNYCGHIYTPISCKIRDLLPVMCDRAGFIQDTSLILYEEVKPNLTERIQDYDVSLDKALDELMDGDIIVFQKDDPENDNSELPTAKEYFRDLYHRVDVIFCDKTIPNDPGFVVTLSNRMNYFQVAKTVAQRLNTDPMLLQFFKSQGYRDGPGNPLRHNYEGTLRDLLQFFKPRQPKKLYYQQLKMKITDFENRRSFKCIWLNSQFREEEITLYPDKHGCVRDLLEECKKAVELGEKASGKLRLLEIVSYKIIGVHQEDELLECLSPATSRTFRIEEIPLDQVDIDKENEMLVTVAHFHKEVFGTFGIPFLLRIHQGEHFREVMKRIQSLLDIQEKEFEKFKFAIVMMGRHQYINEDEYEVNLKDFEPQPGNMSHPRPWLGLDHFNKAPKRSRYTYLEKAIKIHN
UniProt Q2HR73: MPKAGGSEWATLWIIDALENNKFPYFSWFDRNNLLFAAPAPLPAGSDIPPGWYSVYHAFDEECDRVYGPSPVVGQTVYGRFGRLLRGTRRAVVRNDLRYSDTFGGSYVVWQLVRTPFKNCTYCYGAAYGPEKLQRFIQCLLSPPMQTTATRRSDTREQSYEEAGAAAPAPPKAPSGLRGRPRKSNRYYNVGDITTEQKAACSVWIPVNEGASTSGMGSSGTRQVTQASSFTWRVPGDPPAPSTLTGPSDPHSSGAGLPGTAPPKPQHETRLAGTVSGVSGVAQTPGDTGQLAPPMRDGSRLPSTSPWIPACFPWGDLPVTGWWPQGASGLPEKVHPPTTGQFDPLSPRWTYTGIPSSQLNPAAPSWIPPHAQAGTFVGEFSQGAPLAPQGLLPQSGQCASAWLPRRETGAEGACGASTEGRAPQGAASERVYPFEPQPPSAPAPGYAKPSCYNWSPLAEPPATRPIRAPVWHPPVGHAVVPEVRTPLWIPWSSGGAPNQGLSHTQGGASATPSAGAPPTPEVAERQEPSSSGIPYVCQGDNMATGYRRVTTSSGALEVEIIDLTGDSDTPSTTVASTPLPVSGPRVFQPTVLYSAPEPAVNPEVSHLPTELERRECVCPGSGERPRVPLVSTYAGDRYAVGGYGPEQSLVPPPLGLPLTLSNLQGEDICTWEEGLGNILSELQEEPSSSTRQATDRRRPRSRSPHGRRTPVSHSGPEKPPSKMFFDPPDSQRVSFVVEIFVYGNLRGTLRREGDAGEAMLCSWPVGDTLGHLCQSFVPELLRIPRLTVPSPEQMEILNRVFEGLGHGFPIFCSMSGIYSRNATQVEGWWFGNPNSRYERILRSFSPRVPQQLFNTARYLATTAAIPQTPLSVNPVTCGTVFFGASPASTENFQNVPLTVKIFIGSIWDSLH

In this assay the target is Flag/HAUSP 62-1108 (human) (UniProt Q93009). In words: co-immunoprecipitation from transfected 293T cells, IP: V5, IB: Flag.

These are yes or no findings as the source states them, for the method shown. In cells and extracts the contact can be indirect. Some results given as binding are weak or reduced against the parent protein; the word gives no strength.

For “vIRF4 (Kaposi's-sarcoma-associated-herpesvirus vIRF4), full length wild type (from UniProt Q2HR73 1-911)”, the binding entry is reported as “binds”.
